These are yes or no findings as the source states them, for the method shown. In cells and extracts the contact can be indirect. Some binding calls cover weakened binding; strength is not graded here.
Biological target: TEAD1 (UniProt P30051)
Assay: co-IP; co-IP of TEAD1 and YAP1, with and without rNRG4 treatment; cells and bait not stated

Chains of the proteins cited; added tags and fusions are not shown.
UniProt P30051: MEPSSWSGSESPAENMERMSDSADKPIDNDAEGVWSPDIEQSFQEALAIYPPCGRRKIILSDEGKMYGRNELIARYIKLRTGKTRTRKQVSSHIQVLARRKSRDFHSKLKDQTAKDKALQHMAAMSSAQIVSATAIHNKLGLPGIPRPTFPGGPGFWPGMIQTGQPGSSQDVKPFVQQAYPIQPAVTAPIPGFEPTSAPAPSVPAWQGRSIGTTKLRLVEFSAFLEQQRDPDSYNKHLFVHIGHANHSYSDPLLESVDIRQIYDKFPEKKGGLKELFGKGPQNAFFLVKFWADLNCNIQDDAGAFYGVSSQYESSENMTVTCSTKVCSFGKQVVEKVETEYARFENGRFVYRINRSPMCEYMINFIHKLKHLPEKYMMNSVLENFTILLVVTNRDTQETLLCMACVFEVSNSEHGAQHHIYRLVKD
UniProt P46938: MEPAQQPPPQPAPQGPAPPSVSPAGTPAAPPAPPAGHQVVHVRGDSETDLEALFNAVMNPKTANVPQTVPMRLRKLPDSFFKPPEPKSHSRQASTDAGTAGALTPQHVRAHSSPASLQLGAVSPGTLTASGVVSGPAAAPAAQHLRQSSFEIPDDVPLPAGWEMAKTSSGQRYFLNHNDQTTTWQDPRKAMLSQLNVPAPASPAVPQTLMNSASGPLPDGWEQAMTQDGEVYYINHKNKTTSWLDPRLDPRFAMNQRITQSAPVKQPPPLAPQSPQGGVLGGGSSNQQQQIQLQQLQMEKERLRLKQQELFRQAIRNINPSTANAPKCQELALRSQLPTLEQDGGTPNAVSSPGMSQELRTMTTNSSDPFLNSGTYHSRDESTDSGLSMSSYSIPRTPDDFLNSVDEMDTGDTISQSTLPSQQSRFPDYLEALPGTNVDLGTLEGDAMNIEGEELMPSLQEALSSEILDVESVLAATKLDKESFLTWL

How did the binding turn out when YAP1 (from UniProt P46938 1-488) was run?
Its binding is “binds”.

— paper PMC12914539
